Results published in patent EP4713368A1.
Changes are numbered by the printed parent chain. These are yes or no findings as the source states them, for the method shown. Some binding calls cover weakened binding; strength is not graded here.

Chains of the proteins cited; added tags and fusions are not shown. Lines headed by an entry give the natural chain unless they say otherwise; changes in a name come on top.
UniProt P10747: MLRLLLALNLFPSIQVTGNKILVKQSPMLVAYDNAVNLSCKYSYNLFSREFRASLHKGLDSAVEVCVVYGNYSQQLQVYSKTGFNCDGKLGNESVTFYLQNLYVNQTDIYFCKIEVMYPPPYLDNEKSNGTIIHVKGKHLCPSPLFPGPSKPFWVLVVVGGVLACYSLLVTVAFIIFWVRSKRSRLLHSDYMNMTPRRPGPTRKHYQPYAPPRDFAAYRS

B1: Ab No. 83f (antibody, V domains shown)
VH: EVQLLESGGGLVQPGGSLRLSCAASGSTFENFAMTWYRQAPGKERELVSAISAQGGSTYYADSVKGRFTISRDNSKNTLYLQMNSLRAEDTAVYYCNARRYQSSGGDVWGQGTQVTVSS
B2: Ab No. 54 (antibody, V domains shown)
VH: QLQLQESGPGLVKPSETLSLTCTVSGGSISSSSYYWGWIRQPPGKGLEWIGSIYYSGSTYYNPSLKSRVTISVDTSKNQFSLKLSSVTAADTAVYYCTSQGAYLVDYWGQGTLVTVSS
VL: QSALTQPRSVSGSPGQSVTISCTGTSSDVGGYNYVSWYQQHPGKAPKLLIYDVSKRPSGVPDRFSGSKSGNTASLTISGLQAEDEADYYCGSYAGFTSVVFGGGTKLTVL
B3: Ab No. 55 (antibody, V domains shown)
VH: QLQLQESGPGLVKPSETLSLTCTVSGGSISSSDYYWGWIRQPPGKGLEWIGSIYYSGSTYYNPSLKSRVTISVDTSKNQFSLKLSSVTAADTAVYYCVRSYYYVWGASDYWGQGTLVTVSS
VL: QSALTQPRSVSGSPGQSVTISCTGTSSDVGGYNYVSWYQQHPGKAPKLLIYDVSKRPSGVPDRFSGSKSGNTASLTISGLQAEDEADYYCSSYADRVTFRAFGGGTKLTVL
B4: Ab No. 56 (antibody, V domains shown)
VH: QVQLQESGPGLVKPSETLSLTCTVSGGSISSYYWSWIRQPPGKGLEWIGSIYYSGSTNYNPSLKSRVTISVDTSKNQFSLKLSSVTAADTAVYYCARTEVGATRPREDFHHWGQGTLVTVSS
VL: QSVLTQPPSVSAAPGQKVTISCSGSSSNIGNNYVSWYQQLPGTAPKLLIYDNNKRPSGIPDRFSGSKSGTSATLGITGLQTGDEADYYCGTWDNPLGWVFGGGTKLTVL
B5: Ab No. 59 (antibody, V domains shown)
VH: QVQLVQSGAEVKKPGASVKVSCKASGYTFSSYGISWVRQAPGQGLEWMGWISAASGDTDYAQKLQGRVTMTTDTSTSTAYMELRSLRSDDTAVYYCARDYYSYVGDYYGMDVWGQGTTVTVSS
VL: DIVMTQSPDSLAVSLGERATINCKSSQSLLNARTGKNYLAWYQQKPGQPPKLLIYWASTRESGVPDRFSGSGSGTDFTLTISSLQAEDVAVYYCKQSYSLRTFGGGTKVEIK
B6: Ab No. 62 (antibody, V domains shown)
VH: EVQLVESGGGLVQPGGSLRLSCAASGFTFDSYSMNWVRQAPGKGLEWVSYISSSSDTIFYADSVKGRFTISRDNAKNSLYLQMNSLRAEDTAVYYCARDRPLGWGPFDIWGQGTMVTVSS
VL: B5 VL
B7: Ab No. 63 (antibody, V domains shown)
VH: B6 VH with S52D, D56S, F59L
VL: B5 VL
B8: Ab No. 64 (antibody, V domains shown)
VH: B6 VH with D30P, S31A, F59Y, R100T, L102M, P106A
VL: B5 VL
B9: Ab No. 65 (antibody, V domains shown)
VH: B6 VH with D30R, S52D, D56S, F59Y, R100T, L102M, P106A, M115T
VL: B5 VL
B10: Ab No. 66 (antibody, V domains shown)
VH: B6 VH with D30S, S52D, D56S, F59Y, R100T, L102M, P106A, M115L
VL: B5 VL
B11: Ab No. 67 (antibody, V domains shown)
VH: B6 VH with D30E, S31R, S54Q, F59Y, R100T, L102M, P106A, I109V, M115L
VL: B5 VL
B12: Ab No. 69 (antibody, V domains shown)
VH: QLQLQESGPGLVKPSETLSLTCTVSGGSISSSNYYWGWIRQPPGKGLEWIGYIYYPASTYYNPSLKSRVTISVDTSKNQFSLKLSSVTAADTAVYYCARGTNSIRGTGAFDIWGQGTMVTVSS
VL: B5 VL
B13: Ab No. 71 (antibody, V domains shown)
VH: EVQLLESGGGLVQPGGSLRLSCAASGFTFDNYAMSWVRQAPGKERELVSFISGSGGSTYYADSVKGRFTISRDNSKNTLYLQMNSLRAEDTAVYYCAAHASGSYYLDVSRDYDADYWGQGTQVTVSS
B14: Ab No. 72 (antibody, V domains shown)
VH: B13 VH with D30S, N31A, F50I
B15: Ab No. 73 (antibody, V domains shown)
VH: EVQLLESGGGLVQPGGSLRLSCAASGFTFSDFTMSWFRQAPGKERELVSFIGSKAYGGTTEYADSVKGRFTISRDNSKNTLYLQMNSLRAEDTAVYYCAASRYAAPPIDLREDYWGQGTQVTVSS
B16: Ab No. 74 (antibody, V domains shown)
VH: EVQLLESGGGLVQPGGSLRLSCAASGFTFDSYHMSWVRQAPGKERELVSAISGSGGSTYYADSVKGRFTISRDNSKNTLYLQMNSLRAEDTAVYYCAKIDTIVVGDDYEEYDFGSWGQGTQVTVSS
B17: Ab No. 75 (antibody, V domains shown)
VH: EVQLLESGGGLVQPGGSLRLSCAASGFTFSSYAMSWYRQAPGKERELVSAISGSGGSTYYADSVKGRFTISRDNSKNTLYLQMNSLRAEDTAVYYCARIIAGATGTFGYGLDVWGQGTQVTVSS
B18: Ab No. 76 (antibody, V domains shown)
VH: EVQLLESGGGLVQPGGSLRLSCAASGFTFDAYAMSWVRQAPGKERELVSAITDEGSTNYADSVKGRFTISRDNSKNTLYLQMNSLRAEDTAVYYCAVEPWGRIWGQGTQVTVSS
B19: Ab No. 77 (antibody, V domains shown)
VH: B18 VH with D30S, A31S, A50V, T52S, D53S, N58D
B20: Ab No. 79 (antibody, V domains shown)
VH: EVQLLESGGGLVQPGGSLRLSCAASGFTFDHYAMSWFRQAPGKERELVSAISGPGDSTYYADSVKGRFTISRDNSKNTLYLQMNSLRAEDTAVYYCHARGIAARPEGAPRADFGWGQGTQVTVSS
B21: Ab No. 80 (antibody, V domains shown)
VH: EVQLLESGGGLVQPGGSLRLSCAASGFDFSSFAMSWFRQAPGKERELVSAISGSGSETYYADSVKGRFTISRDNSKNTLYLQMNSLRAEDTAVYYCHARGIGLESQVSYYWGQGTQVTVSS
B22: Ab No. 81 (antibody, V domains shown)
VH: EVQLLESGGGLVQPGGSLRLSCAASGFTFDKYSMNWYRQAPGKERELVSAISGSGGDTYYADSVKGRFTISRDNSKNTLYLQMNSLRAEDTAVYYCHARGVIVVEPGEYELNFGWGQGTQVTVSS
B23: Ab No. 82 (antibody, V domains shown)
VH: EVQLLESGGGLVQPGGSLRLSCAASGFTFDSFAMSWFRQAPGKERELVSAISGSGGSTYYADSVKGRFTISRDNSKNTLYLQMNSLRAEDTAVYYCNARGGGLAGFFNYWGQGTQVTVSS
B24: Ab No. 84 (antibody, V domains shown)
VH: EVQLLESGGGLVQPGGSLRLSCAASGFTFSDYDMTWVRQAPGKERELVSSISSSSTDIYYADSVKGRFTISRDNSKNTLYLQMNSLRAEDTAVYYCNAWKKFSHPQVATEDVWGQGTQVTVSS

Legend:
human CD28 (human) [1] = target: human CD28 (human) (UniProt P10747); experiment: affinity maturation of CD28-binding antibodies (Example 10: Discovery of Additional Antibodies that Bind to CD28); the name 83f stands at the start of paragraph 898
human CD28 (human) [2] = target: human CD28 (human) (UniProt P10747); experiment: selection from yeast-presented synthetic human antibody libraries
human CD28 (human) [3] = target: human CD28 (human) (UniProt P10747); experiment: selection from yeast-presented libraries of heavy chains and CD3-binding light chains
human CD28 (human) [4] = target: human CD28 (human) (UniProt P10747); experiment: selection from yeast-presented heavy chain-only libraries (HCAb format)

Row | Binder | binding (human CD28 (human) [3]) | binding (human CD28 (human) [4]) | further results
1 | B1 | – | – | binding (human CD28 (human) [1]): binds
2 | B2 | – | – | binding (human CD28 (human) [2]): binds
3 | B3 | – | – | binding (human CD28 (human) [2]): binds
4 | B4 | – | – | binding (human CD28 (human) [2]): binds
5 | B5 | binds | – | –
6 | B6 | binds | – | –
7 | B7 | binds | – | –
8 | B8 | binds | – | –
9 | B9 | binds | – | –
10 | B10 | binds | – | –
11 | B11 | binds | – | –
12 | B12 | binds | – | –
13 | B13 | – | binds | –
14 | B14 | – | binds | –
15 | B15 | – | binds | –
16 | B16 | – | binds | –
17 | B17 | – | binds | –
18 | B18 | – | binds | –
19 | B19 | – | binds | –
20 | B20 | – | binds | –
21 | B21 | – | binds | –
22 | B22 | – | binds | –
23 | B23 | – | binds | –
24 | B24 | – | binds | –
